The supplement of paper PMC10849652
The other results are listed elsewhere or left out.

Amino acid sequences for entries named in this document (tags omitted). A change or cut given only in a name is not applied to a line headed by its entry.
UniProt O95169, whole entry, looked up: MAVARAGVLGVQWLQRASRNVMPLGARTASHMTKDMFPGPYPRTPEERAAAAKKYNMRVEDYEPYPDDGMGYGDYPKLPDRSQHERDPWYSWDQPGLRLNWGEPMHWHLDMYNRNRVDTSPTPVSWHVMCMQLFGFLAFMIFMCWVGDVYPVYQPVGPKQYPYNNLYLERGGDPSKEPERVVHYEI
UniProt O95139, whole entry, looked up: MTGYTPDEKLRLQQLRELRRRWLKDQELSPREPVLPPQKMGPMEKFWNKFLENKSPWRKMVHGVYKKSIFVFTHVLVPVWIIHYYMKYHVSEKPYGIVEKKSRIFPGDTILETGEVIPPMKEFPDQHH
UniProt Q16795, whole entry, looked up: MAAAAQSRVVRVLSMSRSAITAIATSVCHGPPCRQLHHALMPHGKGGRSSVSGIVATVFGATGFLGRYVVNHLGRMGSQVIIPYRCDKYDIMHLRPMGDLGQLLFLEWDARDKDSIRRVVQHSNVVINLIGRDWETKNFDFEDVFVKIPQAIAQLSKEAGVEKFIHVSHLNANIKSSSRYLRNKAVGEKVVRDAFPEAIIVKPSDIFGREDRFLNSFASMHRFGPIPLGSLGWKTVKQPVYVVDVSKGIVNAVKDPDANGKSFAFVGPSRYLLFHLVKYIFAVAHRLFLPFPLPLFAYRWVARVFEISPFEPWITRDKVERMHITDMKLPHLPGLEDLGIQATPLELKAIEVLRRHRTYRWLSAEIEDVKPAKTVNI
UniProt Q7L592: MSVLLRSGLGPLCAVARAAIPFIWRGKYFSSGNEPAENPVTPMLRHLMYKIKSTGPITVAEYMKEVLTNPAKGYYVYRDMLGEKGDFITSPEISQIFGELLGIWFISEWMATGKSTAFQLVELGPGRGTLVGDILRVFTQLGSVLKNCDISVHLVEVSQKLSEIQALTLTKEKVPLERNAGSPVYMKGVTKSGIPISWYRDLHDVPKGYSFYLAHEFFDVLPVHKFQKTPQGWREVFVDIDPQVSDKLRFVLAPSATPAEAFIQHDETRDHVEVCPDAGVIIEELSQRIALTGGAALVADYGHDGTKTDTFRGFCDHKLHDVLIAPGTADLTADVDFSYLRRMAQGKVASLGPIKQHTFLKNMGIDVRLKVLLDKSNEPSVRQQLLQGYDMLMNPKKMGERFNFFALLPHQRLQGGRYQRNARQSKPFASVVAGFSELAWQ
UniProt Q14686, whole entry, looked up: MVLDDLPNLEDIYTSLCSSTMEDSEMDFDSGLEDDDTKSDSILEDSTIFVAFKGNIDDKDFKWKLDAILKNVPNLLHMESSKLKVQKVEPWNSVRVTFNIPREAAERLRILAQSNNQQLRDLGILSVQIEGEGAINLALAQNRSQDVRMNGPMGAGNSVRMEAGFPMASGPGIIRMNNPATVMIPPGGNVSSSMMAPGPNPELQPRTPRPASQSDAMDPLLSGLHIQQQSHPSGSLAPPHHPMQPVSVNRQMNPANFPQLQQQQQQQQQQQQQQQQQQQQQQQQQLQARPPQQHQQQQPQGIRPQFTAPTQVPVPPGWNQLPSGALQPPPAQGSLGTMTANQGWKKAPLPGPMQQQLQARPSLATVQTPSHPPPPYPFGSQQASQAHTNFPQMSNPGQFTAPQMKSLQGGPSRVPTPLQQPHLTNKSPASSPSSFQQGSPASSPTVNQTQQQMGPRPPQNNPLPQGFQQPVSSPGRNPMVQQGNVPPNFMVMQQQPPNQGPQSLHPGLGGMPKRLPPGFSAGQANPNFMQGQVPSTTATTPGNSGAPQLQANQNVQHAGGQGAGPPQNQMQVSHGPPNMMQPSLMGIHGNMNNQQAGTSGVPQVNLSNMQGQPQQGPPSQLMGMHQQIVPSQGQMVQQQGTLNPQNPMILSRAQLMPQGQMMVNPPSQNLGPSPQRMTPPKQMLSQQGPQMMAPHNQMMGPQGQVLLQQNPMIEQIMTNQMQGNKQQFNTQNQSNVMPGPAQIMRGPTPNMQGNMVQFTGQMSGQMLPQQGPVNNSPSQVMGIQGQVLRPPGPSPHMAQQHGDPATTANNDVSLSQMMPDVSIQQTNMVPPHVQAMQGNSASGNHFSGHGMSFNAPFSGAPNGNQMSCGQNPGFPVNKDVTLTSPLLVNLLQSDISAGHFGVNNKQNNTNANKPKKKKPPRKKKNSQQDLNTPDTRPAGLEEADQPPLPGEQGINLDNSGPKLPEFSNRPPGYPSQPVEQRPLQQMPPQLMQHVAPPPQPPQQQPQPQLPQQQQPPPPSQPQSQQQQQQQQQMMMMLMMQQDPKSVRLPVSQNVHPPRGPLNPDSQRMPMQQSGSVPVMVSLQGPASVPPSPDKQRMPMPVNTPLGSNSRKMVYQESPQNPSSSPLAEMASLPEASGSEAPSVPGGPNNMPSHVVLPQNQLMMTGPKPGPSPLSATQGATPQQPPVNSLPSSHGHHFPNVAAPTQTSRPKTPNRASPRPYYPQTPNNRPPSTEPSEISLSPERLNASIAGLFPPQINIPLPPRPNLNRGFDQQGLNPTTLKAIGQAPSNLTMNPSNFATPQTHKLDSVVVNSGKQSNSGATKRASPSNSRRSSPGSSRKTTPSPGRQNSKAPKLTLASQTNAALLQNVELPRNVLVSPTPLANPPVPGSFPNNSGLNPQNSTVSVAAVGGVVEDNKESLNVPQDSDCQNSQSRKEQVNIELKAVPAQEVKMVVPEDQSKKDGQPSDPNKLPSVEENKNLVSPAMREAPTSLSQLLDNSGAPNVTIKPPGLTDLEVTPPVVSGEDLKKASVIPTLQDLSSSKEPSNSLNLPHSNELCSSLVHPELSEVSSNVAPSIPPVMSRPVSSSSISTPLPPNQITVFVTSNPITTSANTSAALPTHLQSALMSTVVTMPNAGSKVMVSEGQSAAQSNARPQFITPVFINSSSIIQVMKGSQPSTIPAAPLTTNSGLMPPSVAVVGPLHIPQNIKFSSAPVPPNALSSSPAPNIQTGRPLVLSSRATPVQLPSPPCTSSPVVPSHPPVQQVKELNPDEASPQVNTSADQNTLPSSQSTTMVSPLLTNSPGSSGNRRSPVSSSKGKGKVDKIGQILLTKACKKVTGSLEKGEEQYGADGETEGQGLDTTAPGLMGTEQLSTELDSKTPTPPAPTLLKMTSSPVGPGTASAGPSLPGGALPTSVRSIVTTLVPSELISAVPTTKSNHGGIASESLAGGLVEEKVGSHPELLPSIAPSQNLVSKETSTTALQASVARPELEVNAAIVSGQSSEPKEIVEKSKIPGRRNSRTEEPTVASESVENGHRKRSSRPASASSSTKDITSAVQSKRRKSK
UniProt Q92692, whole entry, looked up: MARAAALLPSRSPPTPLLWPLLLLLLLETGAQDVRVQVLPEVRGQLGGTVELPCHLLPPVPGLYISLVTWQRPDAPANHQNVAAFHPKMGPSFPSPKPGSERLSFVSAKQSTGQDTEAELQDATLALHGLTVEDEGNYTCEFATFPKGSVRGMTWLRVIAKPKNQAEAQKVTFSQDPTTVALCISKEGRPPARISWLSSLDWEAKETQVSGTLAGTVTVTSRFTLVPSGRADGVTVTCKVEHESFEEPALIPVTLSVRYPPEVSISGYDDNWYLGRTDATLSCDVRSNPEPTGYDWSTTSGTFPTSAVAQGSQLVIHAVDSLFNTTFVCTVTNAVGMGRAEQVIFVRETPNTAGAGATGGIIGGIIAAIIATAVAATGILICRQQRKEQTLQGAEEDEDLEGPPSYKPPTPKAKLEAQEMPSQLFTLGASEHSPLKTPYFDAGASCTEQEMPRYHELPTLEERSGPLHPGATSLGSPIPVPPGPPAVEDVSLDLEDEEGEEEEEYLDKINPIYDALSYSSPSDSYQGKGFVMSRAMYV
UniProt Q9NV92: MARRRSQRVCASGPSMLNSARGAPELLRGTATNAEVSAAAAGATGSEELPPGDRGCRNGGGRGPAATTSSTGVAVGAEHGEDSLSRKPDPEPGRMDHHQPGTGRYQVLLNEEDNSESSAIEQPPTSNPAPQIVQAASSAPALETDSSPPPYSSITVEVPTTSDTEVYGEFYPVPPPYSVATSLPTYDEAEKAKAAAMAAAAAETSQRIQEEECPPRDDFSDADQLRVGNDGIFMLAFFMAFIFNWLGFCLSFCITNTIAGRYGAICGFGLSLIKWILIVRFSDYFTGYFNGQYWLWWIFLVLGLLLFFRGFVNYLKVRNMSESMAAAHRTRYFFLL
UniProt O95167, whole entry, looked up: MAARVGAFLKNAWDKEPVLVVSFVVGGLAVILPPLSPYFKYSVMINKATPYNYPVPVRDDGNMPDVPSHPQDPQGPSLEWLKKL
UniProt O60934: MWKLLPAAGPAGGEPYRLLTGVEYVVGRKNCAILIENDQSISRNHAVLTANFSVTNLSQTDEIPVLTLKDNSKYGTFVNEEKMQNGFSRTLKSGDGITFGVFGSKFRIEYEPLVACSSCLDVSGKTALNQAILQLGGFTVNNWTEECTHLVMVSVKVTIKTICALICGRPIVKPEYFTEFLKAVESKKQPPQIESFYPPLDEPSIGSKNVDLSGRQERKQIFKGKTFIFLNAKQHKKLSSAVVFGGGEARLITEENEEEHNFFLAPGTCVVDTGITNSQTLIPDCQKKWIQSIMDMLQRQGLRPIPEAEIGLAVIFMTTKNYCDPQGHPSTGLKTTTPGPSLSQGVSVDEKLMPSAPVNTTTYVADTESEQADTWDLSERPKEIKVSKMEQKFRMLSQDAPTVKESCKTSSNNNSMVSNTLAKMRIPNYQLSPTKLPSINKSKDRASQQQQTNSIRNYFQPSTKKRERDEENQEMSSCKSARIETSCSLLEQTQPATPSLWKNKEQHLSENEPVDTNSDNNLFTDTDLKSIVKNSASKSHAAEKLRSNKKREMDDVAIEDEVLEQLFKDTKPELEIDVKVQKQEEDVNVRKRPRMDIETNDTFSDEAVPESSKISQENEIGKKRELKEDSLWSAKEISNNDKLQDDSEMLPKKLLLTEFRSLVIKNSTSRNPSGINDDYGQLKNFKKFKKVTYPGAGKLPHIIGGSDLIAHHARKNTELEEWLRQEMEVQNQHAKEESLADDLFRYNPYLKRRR

Tests used:
Experiment in all cases: log2 fold change, soluble protein after heating vs DMSO (PISA); higher = thermal stabilisation; K562 cells, 10 uM, 30 min; active = over 0.2 and 3.5 SD of the protein, either way, in both replicates (recomputed)
[1] = compound: CC1=C(C=C(C=C1)NC(=O)C2=CC(=CC=C2)C(C)(C)C#N)NC3=CC4=C(C=C3)N=CN(C4=O)C
Summary of the method: (§1)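 Thermal stability values are relative to control samples and come from duplicates. They are expressed as log2 fold changes. For measurement, K562 cells (2×10^6 cells/mL) received 10 μM compound for 30 min, and aliquots were heated for 3 min over 48°C-58°C, pooled, and extracted at 4°C in PBS with 0.5% NP-40. Soluble protein, the supernatant after 21,000xg for 90 min, was quantified by TMTpro 16plex LC-MS/MS with equalised channel sums.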

[2] = compound: CC1=C(C=C(C=C1)NC(=O)C2=CC(=CC=C2)N(C)C)NC(=O)C3=CC=C(C=C3)O
Summary of the method: as §1

[3] = compound: CC1=CC=C(C=C1)SC2=C3C=C(SC3=CN=C2)C(=O)N
Summary of the method: as §1

[4] = compound: CC1=NC(=CC=C1)C2=C(N=C(N2)C(C)(C)C)C3=CC4=NC=CN=C4C=C3
Summary of the method: as §1

Nexturastat A = compound: CCCCN(Cc1ccc(C(=O)NO)cc1)C(=O)Nc1ccccc1 [Nexturastat A]
Summary of the method: as §1

vemurafenib = compound: CCCS(=O)(=O)Nc1ccc(F)c(C(=O)c2c[nH]c3ncc(-c4ccc(Cl)cc4)cc23)c1F [vemurafenib]
Summary of the method: as §1

[5] = compound: CCCS(=O)(=O)Nc1ccc(F)c(C(=O)c2c[nH]c3ncc(Cl)cc23)c1F
Summary of the method: as §1

[6] = compound: CCCc1cc(C)[nH]c(=O)c1CNC(=O)c1cc(-c2ccnc(N3CCN(C)CC3)c2)cc2c1cnn2C(C)C
Summary of the method: as §1

givinostat = compound: CCN(CC)Cc1ccc2cc(COC(=O)Nc3ccc(C(=O)NO)cc3)ccc2c1 [givinostat]
Summary of the method: as §1

barasertib = compound: CCN(CCCOc1ccc2c(Nc3cc(CC(=O)Nc4cccc(F)c4)[nH]n3)ncnc2c1)CCOP(=O)(O)O [barasertib]
Summary of the method: as §1

[7] = compound: CC[C@@H]1C(=O)N(C)c2cnc(Nc3ccc(C(=O)NC4CCN(C)CC4)cc3OC)nc2N1C1CCCC1
Summary of the method: as §1

volasertib = compound: CC[C@@H]1C(=O)N(C)c2cnc(Nc3ccc(C(=O)N[C@H]4CC[C@H](N5CCN(CC6CC6)CC5)CC4)cc3OC)nc2N1C(C)C [volasertib]
Summary of the method: as §1

[8] = compound: CC[C@H](C)N1C=C(C2=C(C=C(C=C21)C3=CN=C(C=C3)N4CCNCC4)C(=O)NCC5=C(C=C(NC5=O)C)C)C
Summary of the method: as §1

epoxomicin = compound: CC[C@H](C)[C@@H](C(=O)N[C@@H]([C@@H](C)O)C(=O)N[C@@H](CC(C)C)C(=O)[C@]1(CO1)C)NC(=O)[C@H]([C@@H](C)CC)N(C)C(=O)C [epoxomicin]
Summary of the method: as §1

[9] = compound: CCn1cc(-c2ccnc3[nH]c(-c4cccc(CN(C)C)c4)cc23)c(-c2ccc(NC(=O)N(C)C)cc2)n1
Summary of the method: as §1

[10] = compound: CN(C)CC(=O)Nc1ccc2[nH]c(=O)c3ccccc3c2c1
Summary of the method: as §1

[11] = compound: CN1C2=C(C3=C1C(=O)N(N=C3)CC4=CC(=CC=C4)N)SC(=C2)S(=O)C
Summary of the method: as §1

[12] = compound: CN1CCC(CNc2ccc3ncc(-c4cccc(OC(F)(F)F)c4)n3n2)CC1
Summary of the method: as §1

[13] = compound: CCn1c(C(=O)N(C2CC2)C2CC2)cc2c3c(ncn3C)c(Nc3cc(C)n(C)n3)nc21
Summary of the method: as §1

rosiglitazone = compound: CN(CCOC1=CC=C(C=C1)C[C@H]2C(=O)NC(=O)S2)C3=CC=CC=N3 (racemic) [rosiglitazone]
Summary of the method: as §1

Target | log2 fold change [1] | log2 fold change [2] | log2 fold change [3] | log2 fold change [4] | log2 fold change (Nexturastat A) | log2 fold change (vemurafenib) | log2 fold change [5] | log2 fold change [6] | log2 fold change (givinostat) | log2 fold change (barasertib) | log2 fold change [7] | log2 fold change (volasertib) | log2 fold change [8] | log2 fold change (epoxomicin) | log2 fold change [9] | log2 fold change [10] | log2 fold change [11] | log2 fold change [12] | log2 fold change [13] | log2 fold change (rosiglitazone)
NDUFB8 (UniProt O95169) | inactive: 0.01 | inactive: -0.068 | inactive: 0.023 | inactive: 0.024 | inactive: 0.045 | inactive: 0.099 | inactive: -0.04 | inactive: -0.025 | inactive: -0.048 | inactive: 0.023 | inactive: 0.008 | inactive: -0.016 | inactive: -0.036 | inactive: 0.074 | inactive: 0.055 | inactive: 0.016 | inactive: 0 | inactive: 0.097 | – | –
NDUFB6 (UniProt O95139) | inactive: 0.022 | inactive: -0.019 | inactive: -0.014 | inactive: 0.033 | inactive: 0.01 | inactive: -0.011 | inactive: -0.008 | inactive: -0.11 | inactive: -0.001 | inactive: -0.065 | inactive: -0.027 | inactive: -0.01 | inactive: -0.058 | inactive: -0.032 | inactive: 0.01 | inactive: -0.027 | inactive: -0.001 | inactive: -0.06 | inactive: 0.008 | inactive: -0.004
NDUFA9 (UniProt Q16795) | inactive: 0.023 | inactive: -0.036 | inactive: 0.019 | inactive: 0.04 | inactive: -0.095 | inactive: 0.009 | inactive: 0.039 | inactive: -0.044 | inactive: 0.041 | inactive: 0.026 | inactive: -0.082 | active: -0.26 | inactive: 0.073 | inactive: 0.03 | inactive: -0.053 | inactive: 0.035 | inactive: -0.017 | active: -0.367 | – | –
NDUFAF7 (UniProt Q7L592) | inactive: 0.085 | inactive: 0 | inactive: 0.018 | inactive: 0.015 | inactive: -0.084 | inactive: 0.052 | inactive: -0.016 | inactive: 0.081 | inactive: 0.132 | inactive: 0.046 | inactive: -0.008 | inactive: 0.121 | inactive: -0.014 | inactive: 0.043 | inactive: 0.079 | inactive: 0.025 | – | inactive: -0.251 | inactive: -0.084 | inactive: 0.075
NCOA6 (UniProt Q14686) | inactive: 0.064 | inactive: -0.056 | inactive: -0.023 | inactive: -0.025 | inactive: 0.036 | inactive: 0.212 | inactive: -0.058 | inactive: -0.067 | inactive: -0.008 | inactive: 0.119 | inactive: 0.124 | inactive: 0.155 | inactive: -0.013 | inactive: -0.058 | inactive: 0.246 | inactive: -0.089 | – | inactive: 0.157 | inactive: -0.04 | inactive: -0.004
NECTIN2 (UniProt Q92692) | inactive: -0.006 | inactive: -0.026 | inactive: 0.037 | inactive: -0.049 | inactive: -0.117 | inactive: 0.016 | inactive: 0.019 | inactive: 0.005 | inactive: -0.025 | inactive: -0.024 | inactive: 0.071 | inactive: 0.029 | inactive: -0.003 | inactive: 0.02 | inactive: -0.044 | inactive: -0.028 | inactive: -0.063 | inactive: 0.138 | – | –
NDUFB10 (UniProt O96000) | inactive: -0.093 | inactive: -0.008 | inactive: 0.001 | inactive: 0.05 | inactive: -0.002 | inactive: -0.019 | inactive: 0 | inactive: -0.126 | inactive: -0.023 | inactive: 0.02 | inactive: -0.008 | inactive: 0.056 | inactive: -0.007 | inactive: 0.001 | inactive: 0.03 | inactive: -0.005 | inactive: -0.043 | active: -0.237 | – | –
NA, A0A2R8Y3M9 | inactive: -0.126 | inactive: 0.546 | inactive: 0.225 | inactive: 0.178 | – | – | inactive: -0.086 | – | – | inactive: -0.138 | – | inactive: -0.134 | inactive: 0.014 | – | inactive: -0.015 | – | inactive: 0.376 | inactive: 0.005 | – | –
NDFIP2 (UniProt Q9NV92) | inactive: -0.704 | inactive: 0.147 | inactive: -0.057 | – | – | – | inactive: -0.094 | inactive: 0.076 | inactive: 0.028 | – | – | inactive: 0.005 | – | – | – | – | – | – | inactive: -0.065 | –
NDUFA3 (UniProt O95167) | inactive: -0.033 | inactive: 0.019 | inactive: 0.046 | – | inactive: 0.022 | inactive: -0.069 | inactive: -0.02 | inactive: -0.033 | inactive: -0.069 | inactive: 0.026 | inactive: -0.038 | inactive: -0.177 | inactive: -0.082 | inactive: 0.236 | inactive: -0.047 | inactive: 0.092 | inactive: 0.056 | inactive: -0.094 | inactive: -0.131 | inactive: 0.009
NBN (UniProt O60934) | inactive: 0.017 | inactive: -0.008 | inactive: -0.01 | inactive: 0.014 | inactive: -0.03 | inactive: 0.081 | inactive: 0.047 | inactive: 0.04 | inactive: 0.054 | inactive: 0.022 | inactive: -0.072 | active: -0.219 | inactive: 0.031 | inactive: 0.073 | inactive: 0.002 | inactive: 0.061 | inactive: -0.043 | inactive: -0.116 | – | –
NACA4P (UniProt Q9BZK3) | inactive: 0.029 | inactive: 0 | – | inactive: 0.091 | inactive: 0.011 | inactive: 0.047 | – | inactive: 0.059 | inactive: 0.241 | inactive: 0.032 | inactive: 0.023 | – | inactive: -0.011 | inactive: 0.017 | – | inactive: 0.029 | inactive: 0.025 | – | inactive: -0.235 | inactive: 0.026

Already shown: entries from further up.
Target | log2 fold change [1] | log2 fold change [2] | log2 fold change [3] | log2 fold change [4] | log2 fold change (Nexturastat A) | log2 fold change (vemurafenib) | log2 fold change [5] | log2 fold change [6] | log2 fold change (givinostat) | log2 fold change (barasertib) | log2 fold change [7] | log2 fold change (volasertib) | log2 fold change [8] | log2 fold change (epoxomicin) | log2 fold change [9] | log2 fold change [10] | log2 fold change [11] | log2 fold change [12] | log2 fold change [13] | log2 fold change (rosiglitazone)
NDUFB6 (UniProt O95139) | inactive: 0.022 | inactive: -0.019 | inactive: -0.014 | inactive: 0.033 | inactive: 0.01 | inactive: -0.011 | inactive: -0.008 | inactive: -0.11 | inactive: -0.001 | inactive: -0.065 | inactive: -0.027 | inactive: -0.01 | inactive: -0.058 | inactive: -0.032 | inactive: 0.01 | inactive: -0.027 | inactive: -0.001 | inactive: -0.06 | inactive: 0.008 | inactive: -0.004
NDUFA9 (UniProt Q16795) | inactive: 0.023 | inactive: -0.036 | inactive: 0.019 | inactive: 0.04 | inactive: -0.095 | inactive: 0.009 | inactive: 0.039 | inactive: -0.044 | inactive: 0.041 | inactive: 0.026 | inactive: -0.082 | active: -0.26 | inactive: 0.073 | inactive: 0.03 | inactive: -0.053 | inactive: 0.035 | inactive: -0.017 | active: -0.367 | – | –
